Measured values taken from ChEMBL document CHEMBL6134800, “Applications of innovative synthetic strategies in anticancer drug discovery: The driving force of new chemical reactions” (Bioorg Med Chem Lett, 2025).
pIC50: −log10 of the molar value.

System: Escherichia coli
Test: Antimicrobial activity against Escherichia coli assessed as reduction in microbial growth
Type: functional, organism-based

For `CN[C@@H]1[C@@H](O)[C@@H](O[C@@H]2[C@@H](O)[C@H](O[C@H]3O[C@H](CN)CC[C@H]3N)[C@@H](N)C[C@H]2N)OC[C@]1(C)O` [GENTAMICIN C1A], the pIC50 was 5.37.
